# From PubChem BioAssay (NCATS)
# Inconclusive results, whose numbers are uncertain, are shown with a selection of clear calls. A potency beside an inconclusive call is a rough fit, not a confirmed value. Active and inactive are the calls of the source. Calls come from the whole dose curve; as a rule, active = well fitted cell-killing curve with a large enough effect; inconclusive = small, poorly fitted or top-dose-only effect, or effect the other way; inactive = no such curve, though single readings can be large or run the other way.
# Experiment: Quantitative High-Throughput drug screen in 47 multiple myeloma cell lines against the NCATS MIPE library collection: JIM1_ECACC cell viability assay (AID 1918964)
# Settings: JIM1 myeloma viability, CellTiter-Glo ATP luminescence, 48 h; series mostly up to 45.8 µM
# From the text: PI: Beverly A. Mock Ph.D.
# Laboratory of Cancer Biology and Genetics,
# Center for Cancer Research, National Cancer Institute,
# National Institute of Health, Bethesda, Maryland
# Drug resistance and disease progression are common in multiple myeloma (MM) patients, underscoring the need for new therapeutic combinations. […] We hypothesized that effective combinations would reduce MYC expression and enhance p16 activity. […] These preclinical data identify potentially useful drug combinations for evaluation in drug-resistant MM and reveal potential mechanisms of combined drug sensitivity.
# Described herein is the primary MIPE qHTS used to cherrypick compounds. Validated compounds were then further tested for potential synergistic activiy.
# [1] Peat TJ, Gaikwad SM, Dubois W, Gyabaah-Kessie N, Zhang S, Gorjifard S, Phyo Z, Andres M, Hughitt VK, Simpson RM, Miller MA, Girvin AT, Taylor A, Williams D, D'Antonio N, Zhang Y, Rajagopalan A, Flietner E, Wilson K, Zhang X, Shinn P, Klumpp-Thomas C, McKnight C, Itkin Z, Chen L, Kazandijian D, Zhang J, Michalowski AM, Simmons JK, Keats J, Thomas CJ, Mock BA. Drug combinations identified by high-throughput screening promote cell cycle transition and upregulate Smad pathways in myeloma. Cancer Lett. 2023 Aug 1;568:216284. doi: 10.1016/j.canlet.2023.216284. Epub 2023 Jun 24. PMID: 37356470; PMCID: PMC10408729.
# SEQUENCE No. (e.g., 1, 2, 3, etc.); […] (e.g., Cells, Incubation, Reagent, etc.); VALUE and DESCRIPTION.
# 1; Cells; 5 uL; white, solid bottom 1536-well Greiner assay plate.
# 2; Compounds; 23 nL; Kalypsis pin tool (Wako USA) equipped with a 1536-well pin head to transfer to the assay plates.
# 3; Incubation; 48 hours; 37C incubation.
# 4; Reagent;5uL; CellTiter Glo (Promega).
# 5; Detector; 425V; Luminescence; Viewlux PerkinElmer.
# NOTES (numbers refer to Sequence numbers above)
# 1. The cell-based screening methods employed in this study were like those previously published. Briefly, the corresponding myeloma cell lines were screened in 1,536-well plates with 500 cells, 5-uL per well for inhibition of cell viability (assessed by measuring ATP levels with CellTiterGlo).
# 2. NCATS MIPE 4.0 library of approved and investigational drugs were added using the Kalypsis pin tool. Wells treated with DMSO only for 100% viability and media only wells for 0% viability were used as controls.
# 3. The assay plates were covered and incubated for 48 hours in a 37C, 5% CO2 incubator with controlled humidity.
# 4. After 48 hours, CellTilter-GloTM luminescent substrate mix (Promega) reagent was added to the assay plate and plates we incubated for 5 min at room temperature.
# 5. Signal was measured as median relative luminescence units on a ViewLux (PerkinElmer) multiplate reader.
# [1] Heske CM, Davis MI, Baumgart JT, Wilson K, Gormally MV, Chen L, Zhang X, Ceribelli M, Duveau DY, Guha R, Ferrer M, Arnaldez FI, Ji J, Tran HL, Zhang Y, Mendoza A, Helman LJ, Thomas CJ. Matrix Screen Identifies Synergistic Combination of PARP Inhibitors and Nicotinamide Phosphoribosyltransferase (NAMPT) Inhibitors in Ewing Sarcoma. Clin Cancer Res. 2017 Dec 1;23(23):7301-7311. doi: 10.1158/1078-0432.CCR-17-1121. Epub 2017 Sep 12. PMID: 28899971; PMCID: PMC6636827.
# Potency is the fitted concentration of half-maximal effect.
row,Compound,Potency
1,O=C(O)c1ccc(O)c2ncc(N3CCOCC3)cc12,active: 20.9 µM
2,Cc1cnc(-c2cc(N3CCN(C(=O)CCS(C)(=O)=O)CC3)ncc2Cl)c(C)c1,"inconclusive: 37.2 µM [cytotoxic, single point]"
3,C=CC[C@@H]1C=C(C)C[C@H](C)C[C@H](OC)[C@H]2O[C@@](O)(C(=O)C(=O)N3CCCC[C@H]3C(=O)O[C@H](C(C)=C[C@@H]3CC[C@H](O)[C@H](OC)C3)[C@@H](C)[C@@H](O)CC1=O)[C@@H](C)C[C@@H]2OC,active: 1.18 µM
4,COc1ccc2c(c1)c(CC(=O)OCC(=O)O)c(C)n2C(=O)c1ccc(Cl)cc1,inactive
5,Cc1cc(OCCCS(C)(=O)=O)cc(C)c1-c1cccc(COc2ccc3c(c2)OC[C@H]3CC(=O)O)c1,inactive
6,c1ccc(CNc2nc(N3CCOc4ccccc43)nc3c2CCCC3)cc1,"inconclusive: 37.2 µM [cytotoxic, single point]"
7,Cc1ccc(Nc2nccc(N(C)c3ccc4c(C)n(C)nc4c3)n2)cc1S(N)(=O)=O,"inconclusive: 33.2 µM [cytotoxic, partial curve, poor fit]"
8,CNC[C@@H](O)[C@@H](O)[C@H](O)[C@H](O)CO,inactive
9,CC[C@]1(O)C[C@H]2CN(CCC3=c4ccccc4=N[C]3[C@@](C(=O)OC)(c3cc4c(cc3OC)N(C)[C@H]3[C@@](O)(C(N)=O)[C@H](O)[C@]5(CC)C=CCN6CC[C@]43[C@@H]65)C2)C1,"inconclusive: 0.132 µM [cytotoxic, full curve]"
10,N[C@@H](C(=O)N[C@@H]1C(=O)N2C(C(=O)O)=C(Cl)CS[C@H]12)c1ccccc1,inactive
11,CN[C@@H]1CN(c2ccc3c(=O)c(C(=O)O)cn(-c4nccs4)c3n2)C[C@@H]1OC,"inconclusive: 16.2 µM [cytotoxic, single point]"
12,CC(C)Oc1ccc(C(=O)N[C@H](CNC(=O)CN(C)C)Cc2ccc(-c3cn4cccc([C@H](C)O)c4n3)cc2)cc1Cl,"inconclusive: 0.0833 µM [cytotoxic, full curve, poor fit]"
13,COc1ccc(OC)c(-c2nnc3ccc(-c4ccc(OC)c(O[C@@H]5CCOC5)c4)nn23)c1,active: 8.33 µM
14,CC(=O)NCCC(=O)N[C@@H](CCC(N)=O)C(=O)N[C@@H](CO)C(=O)N[C@@H](CCC(N)=O)C(=O)N[C@@H](CCC(N)=O)C(=O)N[C@H](C(=O)N[C@@H](Cc1ccccc1)C(=O)N[C@]1(C)CCCCCCC=CCCC[C@@](C)(C(=O)N[C@@H](CCC(N)=O)C(=O)N[C@@H](CC(N)=O)C(N)=O)NC(=O)[C@H](CC(C)C)NC(=O)[C@H](CC(C)C)NC(=O)[C@@H](CCCNC(=N)N)NC(=O)[C@H](Cc2c[nH]c3ccccc23)NC(=O)[C@H](CC(C)C)NC(=O)[C@H](CC(N)=O)NC1=O)[C@H](C)O,active: 7.43 µM
15,CN(CC(=O)N(Cc1ccc(C2CCCCC2)cc1)c1ccc(C(=O)O)c(O)c1)S(=O)(=O)c1c(F)c(F)c(F)c(F)c1F,active: 3.32 µM
16,C=CCc1cccc(C=NNC(=O)CN2CCN(Cc3ccccc3)CC2)c1O,active: 5.26 µM
17,CC1CNc2c(cccc2S(=O)(=O)N[C@@H](CCCN=C(N)N)C(=O)N2CC[C@@H](C)C[C@@H]2C(=O)O)C1 (stereo not given in full),"inconclusive: 33.2 µM [cytotoxic, partial curve, poor fit]"
18,CON=C(C(=O)N[C@@H]1C(=O)N2C(C(=O)O)=C(CSC(=O)c3ccco3)CS[C@H]12)c1csc(N)n1,"inconclusive: 0.0235 µM [cytotoxic, full curve, poor fit]"
19,c1ccc([C@H]2CN3CCSC3=N2)cc1,"inconclusive: 2.09 µM [rising, full curve, poor fit]"
20,COc1cc(OC)c(NC(=O)Nc2cc(C)on2)cc1Cl,"inconclusive: 0.0042 µM [rising, full curve, poor fit]"

# Quoted from the listing:
# In Potency, CC(C)Oc1ccc(C(=O)N[C@H](CNC(=O)CN(C)C)Cc2ccc(-c3cn4cccc([C@H](C)O)c4n3)cc2)cc1Cl has the entry inconclusive: 0.0833 µM [cytotoxic, full curve, poor fit]
# In Potency, COc1ccc2c(c1)c(CC(=O)OCC(=O)O)c(C)n2C(=O)c1ccc(Cl)cc1 has the entry inactive

# Next compounds

row,Compound,Potency
1,O=[N+]([O-])c1cn2c(n1)OC[C@@H](OCc1ccc(OC(F)(F)F)cc1)C2,inactive
2,CNC(=O)c1cc(Oc2ccc(NC(=O)Nc3ccc(Cl)c(C(F)(F)F)c3)cc2)ccn1,"inconclusive: 5.26 µM [cytotoxic, partial curve, poor fit]"
3,CN(C)c1nc(Cc2ccc(NC(=O)c3ccc4ccccc4c3)cc2)nc(Cl)c1CC(=O)O,"inconclusive: 37.2 µM [cytotoxic, single point]"
4,Clc1ccc2ncc(-c3cccc(NC4CNC4)n3)n2c1,"inconclusive: 0.662 µM [cytotoxic, full curve, poor fit]"
5,CC(C)OC(=O)[C@H](C)N[P@](=O)(OC[C@H]1O[C@@H](n2ccc(=O)[nH]c2=O)[C@](C)(F)[C@H]1O)Oc1ccccc1,"inconclusive: 0.0037 µM [cytotoxic, full curve, poor fit]"
6,NC(=O)c1cnccn1,inactive
7,O=C1CCC(N2C(=O)c3ccccc3C2=O)C(=O)N1 (stereo not given),inactive
8,c1cc(OCCN2CCCCC2)cc(-c2n[nH]c3ccc(-c4ncn[nH]4)cc23)c1,"inconclusive: 3.32 µM [cytotoxic, full curve, poor fit]"
9,Cc1cccc(N(C)C(=S)Oc2ccc3ccccc3c2)c1,"inconclusive: 29.6 µM [cytotoxic, partial curve, poor fit]"
10,NCCCC(N)(C(=O)O)C(F)F (stereo not given),"inconclusive: 0.0187 µM [cytotoxic, full curve, poor fit]"
11,COc1ccc2[nH]cc(CCNC(C)=O)c2c1,active: 0.0074 µM
12,CN1CCN(c2ccc3nc(-c4c(N)c5c(F)cccc5[nH]c4=O)[nH]c3c2)CC1,"inconclusive: 13.2 µM [cytotoxic, partial curve, poor fit]"
13,COc1ccc2c(c1OC)C(=O)OC2[C@H]1c2c(cc3c(c2OC)OCO3)CCN1C (stereo not given in full),active: 0.001 µM
14,N#CC(=C(N)Sc1ccc(N)cc1)c1ccccc1C(F)(F)F,"inconclusive: 0.0526 µM [cytotoxic, full curve, poor fit]"
15,C[C@]12CCC(=O)C=C1CC[C@@H]1[C@H]2[C@@H](O)C[C@@]2(C)[C@H]1CC[C@]2(O)C(=O)CO,inactive
16,CC(C)(Sc1ccc(CCN(CCCCC2CCCCC2)C(=O)NC2CCCCC2)cc1)C(=O)O,"inconclusive: 0.0053 µM [cytotoxic, full curve, poor fit]"
17,CCOc1cc2ncc(C#N)c(Nc3ccc(F)c(Cl)c3)c2cc1NC(=O)C=CCN(C)C,"inconclusive: 0.526 µM [cytotoxic, full curve, poor fit]"
18,O=c1c(O)c(-c2ccc(O)cc2O)oc2cc(O)cc(O)c12,"inconclusive: 9.35 µM [cytotoxic, partial curve, poor fit]"
19,CCOc1ccccc1OCCNC(C)Cc1ccc(OC)c(S(N)(=O)=O)c1 (stereo not given),inactive
20,Cc1cnc(NC(=O)C2=C(O)c3ccccc3S(=O)(=O)N2C)s1,inactive
